For two substances, binding results are on record in publication PMC5833723.

Amino acid sequences for entries named in this document (tags omitted). A change or cut given only in a name is not applied to a line headed by its entry.
UniProt P31260: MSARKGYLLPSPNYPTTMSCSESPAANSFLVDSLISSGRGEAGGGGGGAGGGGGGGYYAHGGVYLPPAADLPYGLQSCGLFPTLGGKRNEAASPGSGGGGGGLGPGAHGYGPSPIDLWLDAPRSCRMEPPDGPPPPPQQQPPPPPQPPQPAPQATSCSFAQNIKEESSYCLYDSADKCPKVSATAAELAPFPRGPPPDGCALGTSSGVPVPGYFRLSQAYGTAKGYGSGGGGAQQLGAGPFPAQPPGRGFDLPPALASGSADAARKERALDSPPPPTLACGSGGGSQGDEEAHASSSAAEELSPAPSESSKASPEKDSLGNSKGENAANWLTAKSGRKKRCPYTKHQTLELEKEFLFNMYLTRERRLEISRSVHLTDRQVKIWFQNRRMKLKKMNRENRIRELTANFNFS

For the assay, the target named is T1, Flag-tagged CAPN7 (human) (UniProt Q9Y6W3).
T1 sequence: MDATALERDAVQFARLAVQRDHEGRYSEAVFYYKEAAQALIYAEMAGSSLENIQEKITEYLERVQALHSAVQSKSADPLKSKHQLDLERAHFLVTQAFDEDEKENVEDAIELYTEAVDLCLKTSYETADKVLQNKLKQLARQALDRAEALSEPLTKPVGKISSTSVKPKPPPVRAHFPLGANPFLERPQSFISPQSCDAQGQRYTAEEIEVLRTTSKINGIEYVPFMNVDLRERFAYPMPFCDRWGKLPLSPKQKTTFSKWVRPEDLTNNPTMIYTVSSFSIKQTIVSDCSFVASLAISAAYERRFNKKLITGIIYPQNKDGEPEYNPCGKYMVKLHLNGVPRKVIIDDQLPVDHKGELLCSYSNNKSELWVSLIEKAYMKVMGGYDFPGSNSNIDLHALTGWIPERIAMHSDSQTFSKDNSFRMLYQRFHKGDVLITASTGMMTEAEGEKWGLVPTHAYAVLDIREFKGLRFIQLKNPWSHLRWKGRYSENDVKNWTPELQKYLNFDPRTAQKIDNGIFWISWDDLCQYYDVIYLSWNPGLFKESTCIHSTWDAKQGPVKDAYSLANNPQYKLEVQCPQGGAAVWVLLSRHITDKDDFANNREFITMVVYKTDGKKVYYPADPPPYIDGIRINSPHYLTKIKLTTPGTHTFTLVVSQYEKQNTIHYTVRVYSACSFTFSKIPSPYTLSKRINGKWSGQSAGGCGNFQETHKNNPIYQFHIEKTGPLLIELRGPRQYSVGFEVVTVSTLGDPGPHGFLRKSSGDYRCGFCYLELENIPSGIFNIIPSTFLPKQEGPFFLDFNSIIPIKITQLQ
Kind of assay: co-IP; HEK293T cells transiently co-transfected, lysed after 48 h in 50 mM Tris-HCl pH 7.6, 150 mM NaCl, 1.0% NP-40; precipitation with Myc-conjugated antibody or anti-Flag M2 beads at 4 °C overnight; immunoblot. (Immunoblotting shows a protein as a band on a membrane.)

Results are given in words; binding and its absence hold for the method and conditions named. Binding seen in cells or lysates may run through a third protein. Some binding calls cover weakened binding; strength is not graded here. Sequences can lack the tags named with a protein.

Regarding Myc-HOXA10 (from UniProt P31260 1-410), the binding result is reported as “binds”. Then “Myc-HOXA10 C terminus (311–410 AA) (from UniProt P31260 311-410) (domain or fragment)”, with “binds”.
